Results: PMC5062169, “Structural basis for ligand recognition by a Cache chemosensory domain that mediates carboxylate sensing in Pseudomonas syringae” (Scientific Reports, 2016)

Molecular target: T1, PscD (PscD-SD, Cache sensor domain of chemoreceptor PscD) (Pseudomonas syringae, UniProt A0ABY1U976)
T1 construct: gene CFBP3846_03581; sensor domain, Gln31-Trp188, N-terminal His6 tag
T1 sequence (A0ABY1U976 31-188): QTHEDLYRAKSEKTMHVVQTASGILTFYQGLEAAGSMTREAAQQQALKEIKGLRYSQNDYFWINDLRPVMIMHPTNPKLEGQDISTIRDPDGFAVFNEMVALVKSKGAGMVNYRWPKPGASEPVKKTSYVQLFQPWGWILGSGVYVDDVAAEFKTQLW
Parameters: fluorescence thermal shift (SYPRO Orange) screen of Biolog PM1/PM2 compounds, delta Tm
Details: Biolog plate compound, exact concentration unknown; binder
Source text: We used high-throughput fluorescence thermal shift (FTS) assays (as described previously[16]) to screen for potential ligands of PscD-SD. FTS assays are based on the principle that ligands stabilise proteins upon binding, causing an increase in the melting temperature of the protein[22][23]. Binding can therefore be rapidly screened by measuring the difference in the temperature midpoint of unfolding (ΔTm) of a protein in the presence and absence of potential ligands. In our FTS assays, the Tm was measured by monitoring an increase in fluorescence of a dye with affinity for hydrophobic parts of the protein (i.e. SYPRO Orange), which are exposed as the protein unfolds. We screened the recombinant PscD-SD protein in FTS assays against the compounds in Biolog Phenotype Microarray (PM) plates 1 and 2 (Supplementary Tables 1 and 2). Each plate contains 95 different compounds (e.g., organic acids, sugars) and a water (no ligand) control. […] The plate was covered with Lightcycler 480 sealing film (Roche Diagnostics) and fluorescence signal was monitored as the temperature was increased from 20 °C to 80 °C at a rate of 1.2 °C.min^−1 in a Lightcycler 480 (Roche Diagnostics). […] The first derivative values (−dF/dt) from the raw fluorescence data were used to determine the melting temperature (Tm). […]

## NCCC[C@H](N)C(=O)O [L-Ornithine]
  Δ Tm: 0.00 ± 0.00 °C
